Reference: PubChem BioAssay AID2685 (National Center for Advancing Translational Sciences (NCATS), 2010)
The other results are listed elsewhere or left out. Further columns of the screen follow, without active or inactive calls. Most of these compounds were active or inconclusive in the main read-out, so they are no random draw. Potencies come from curve fits of mixed quality, noted in brackets.

Assay: qHTS Assay for Lipid Storage Modulators in Drosophila S3 Cells;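 on cell number change: cells counted by Cell Tracker Red CMTPX staining in the red channel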
Settings: BODIPY lipid droplet fluorescence, 18-24 h; for cell number change: measured here: cell count max response, cells fed with added oleic acid
Method in brief: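 Drosophila S3 cells loaded with oleic acid (400 uM, as added) and compounds at several concentrations; lipid droplets imaged by 488-nm laser-scanning cytometry, 500–530 nm intensity and object ratio to cell channel. Percent activity normalized to 20 uM Triacsin C.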

[1] = measured here: lipid fluorescence (Fed channel) AC50, cells fed with added oleic acid
[2] = measured here: cell number channel AC50, cells fed with added oleic acid

Compound | cell number change [%] | AC50 [1] | AC50 [2]
COc1ccc(Cl)cc1NC(=O)NC(C)c1ccncc1 (stereo unspecified) | 8.99 | 8.2 µM [rising, partial curve] | 
COc1ccc(CNC(=O)C(C)OC(=O)C23CC4CC(CC(O)(C4)C2)C3)cc1 (stereo unspecified) | -39.3 | 0.731 µM [falling, full curve] | 18.4 µM [falling, partial curve]
O=C(CCc1nc(-c2ccccc2F)no1)Nc1ccc(Oc2ccccc2)cc1 | -37.7 | 5.8 µM [falling, partial curve] | 2.31 µM [falling, partial curve]
C/C(=N\NC(=O)c1ccc(Br)o1)c1cc2c(cc1NC(=O)CCC(=O)O)OCO2 | -14.7 | 5.17 µM [falling, single point] | 
Cc1ccc2nc3sc(C(=O)Nc4c(C)[nH]c(=O)[nH]c4=O)c(N)c3cc2c1 | 121 | 0.184 µM [rising, full curve, poor fit] | 0.517 µM [rising, single point]
COc1cccc(-c2nnc(SCC(=O)Nc3ccc(OC)c(OC)c3)n2N)c1 | -2.97 | 3.26 µM [rising, single point] | 
O=C(NCC1CCCCC1)c1cc(S(=O)(=O)N2CCCCC2)ccc1N1CCOCC1 | 17 |  | 0.00461 µM [rising, full curve, poor fit]
COCC1CCN(C(=O)c2cc(COc3ccccc3SC)on2)C1 (stereo unspecified) | -6.25 |  | 
Cc1cc(/C=N/NC(N)=S)c(O)c(/C=N/NC(N)=S)c1 | 40.9 |  | 29.1 µM [rising, single point]
CCN(Cc1cccs1)C(=O)CN1C(=O)NC2(CCCc3ccccc32)C1=O (stereo unspecified) | -11.7 | 25.9 µM [falling, partial curve] | 
Cc1ccc2[nH]c3c(=O)n(CC(=O)N4CCN(C)CC4)ncc3c2c1 | 2.29 | 2.59 µM [rising, partial curve] | 
COc1ccc2c(c1)CCCC21NC(=O)N(CC(=O)c2cc(F)ccc2F)C1=O (stereo unspecified) | 21.5 | 0.82 µM [rising, full curve, poor fit] | 
Cc1noc(/C=C/c2ccco2)c1S(=O)(=O)N1CCC(C(=O)N2CCc3ccccc32)CC1 | -0.659 | 20.6 µM [rising, single point] | 
CCS(=O)(=O)Nc1ccc(-c2nnc(SCC(=O)c3ccc(NC(C)=O)c(OC)c3)o2)cc1 | -11.1 |  | 
COC(=O)c1cc(-c2ccc(Br)cc2)c2c(=O)n(C)c(=O)n(C)c2n1 |  | 10.3 µM [falling, partial curve] | 
O=C(CN1CCN(C(=O)c2cccc(S(=O)(=O)N3CCCC3)c2)CC1)Nc1ccc(F)cc1 | 3.66 | 1.84 µM [rising, partial curve, poor fit] | 
COc1ccc(C(=O)COC(=O)Cn2cnc3c2c(=O)n(C)c(=O)n3C)c(OC)c1 | -14.4 | 29.1 µM [falling, single point] | 
O=C(Nc1ccc(Cl)c(Cl)c1)Nc1nc(-c2ccccc2)cs1 | -34.5 | 29.1 µM [falling, partial curve, poor fit] | 29.1 µM [falling, single point]
COC(=O)Cc1cc(=O)[nH]c(/N=C(\N)Nc2ccccc2)n1 |  | 4.11 µM [falling, partial curve] | 

Compound | cell number change [%] | AC50 [1] | AC50 [2]
COc1ccc(CCNC(=O)CNCC(c2ccccc2)N(C)C)cc1OC (stereo unspecified) |  |  | 1.64 µM [rising, partial curve]
O=[N+]([O-])c1ccc(N2CCN(c3ccccc3)CC2)cc1 | 9.07 | 29.1 µM [rising, single point] | 
CCOC(=O)Cn1c(=O)oc2cc(S(=O)(=O)NCc3ccccn3)ccc21 | -13.7 |  | 
Cc1ccc(CNC(=O)COC(=O)c2cnccn2)cc1 | 30.3 | 6.51 µM [falling, single point] | 0.184 µM [rising, full curve, poor fit]
Cc1cc(C)nc(Nc2n[nH]c(COc3ccccc3)n2)n1 | 8.47 |  | 
CCc1nnc(NC(=O)c2ccc(COc3ccccc3Cl)o2)s1 | 8.97 |  | 
Cc1cccc(N(C)C(=O)c2cc(S(=O)(=O)N3CCCC3)cn2C)c1 | 12.4 |  | 
CC1(C)Cc2c(cnn2-c2ccc(F)cc2)C(NC(=O)CCc2ccncc2)C1 (stereo unspecified) | 12.5 | 0.58 µM [falling, single point] | 
COc1cc(OC)cc(-n2nnnc2SCC(=O)N2CCCC2)c1 | -24.9 | 0.651 µM [falling, partial curve, poor fit] | 
CCOc1ccc(N2C(=O)Cc3ccccc3C2=O)cc1 |  | 5.8 µM [falling, partial curve] | 
CCCCOc1ccc(C(C)(O)CCN2CCOCC2)cc1 (stereo unspecified) | -4.77 |  | 
CC(=O)NNc1cccc(Cl)n1 | 153 | 3.66 µM [rising, single point] | 14.6 µM [rising, partial curve]
CCOC(=O)c1cn(Cc2cccc(C)c2)nn1 |  | 6.51 µM [rising, single point] | 
CN=C1SC(CC(=O)NCCc2ccc(OC)c(OC)c2)C(=O)N1C (stereo unspecified) | 7.59 | 0.58 µM [rising, full curve] | 
O=C(O)c1ccc(N/N=C/C=C/c2ccc([N+](=O)[O-])o2)cc1 | 4.62 |  | 0.103 µM [rising, full curve, poor fit]
Cc1ccc(-c2nc(C3CCCN(S(=O)(=O)c4ccc(C(C)(C)C)cc4)C3)no2)cc1 (stereo unspecified) | 26.9 | 0.00651 µM [falling, full curve, poor fit] | 
CC(=O)OCCCCCCCCCCC[N+]1(C)CCCCC1 | -4.58 | 0.731 µM [falling, full curve] | 
O=C(CSc1nc2ncc(Cl)cc2[nH]1)Nc1ccccc1-c1ccccc1 | -15.9 | 16.4 µM [falling, partial curve, poor fit] | 
COc1ccc(N2CCN(c3ncnc4sc(C(=O)NCC5CCCO5)c(C)c34)CC2)cc1 (stereo unspecified) | -13.2 | 5.62 µM [rising, single point] | 0.651 µM [falling, full curve, poor fit]

Arranged by SMILES length (rising): part of the list above.
Compound | cell number change [%] | AC50 [1] | AC50 [2]
CCOC(=O)c1cn(Cc2cccc(C)c2)nn1 |  | 6.51 µM [rising, single point] | 
O=C(CCc1nc(-c2ccccc2F)no1)Nc1ccc(Oc2ccccc2)cc1 | -37.7 | 5.8 µM [falling, partial curve] | 2.31 µM [falling, partial curve]
COc1ccc2c(c1)CCCC21NC(=O)N(CC(=O)c2cc(F)ccc2F)C1=O (stereo unspecified) | 21.5 | 0.82 µM [rising, full curve, poor fit] | 
